The record followed here is the supplement of paper PMC10849652.

By UniProt entry, the sequences of proteins in these tests, tags left out. Where a name states a change or a piece, a line headed by the entry shows the natural chain unless it says otherwise.
UniProt Q9UHR4: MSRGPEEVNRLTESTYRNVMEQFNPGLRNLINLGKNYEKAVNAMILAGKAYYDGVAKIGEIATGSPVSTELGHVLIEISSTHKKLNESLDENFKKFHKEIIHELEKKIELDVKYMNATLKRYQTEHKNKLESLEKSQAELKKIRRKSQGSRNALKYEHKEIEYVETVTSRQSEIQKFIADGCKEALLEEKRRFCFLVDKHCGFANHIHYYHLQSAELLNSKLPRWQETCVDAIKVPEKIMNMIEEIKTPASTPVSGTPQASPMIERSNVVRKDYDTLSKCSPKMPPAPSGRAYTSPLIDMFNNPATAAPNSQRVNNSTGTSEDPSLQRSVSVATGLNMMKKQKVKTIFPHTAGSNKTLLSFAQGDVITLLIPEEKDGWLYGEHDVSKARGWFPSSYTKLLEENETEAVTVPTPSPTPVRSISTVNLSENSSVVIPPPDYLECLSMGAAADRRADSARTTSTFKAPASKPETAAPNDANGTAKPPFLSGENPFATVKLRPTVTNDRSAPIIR
UniProt O95861: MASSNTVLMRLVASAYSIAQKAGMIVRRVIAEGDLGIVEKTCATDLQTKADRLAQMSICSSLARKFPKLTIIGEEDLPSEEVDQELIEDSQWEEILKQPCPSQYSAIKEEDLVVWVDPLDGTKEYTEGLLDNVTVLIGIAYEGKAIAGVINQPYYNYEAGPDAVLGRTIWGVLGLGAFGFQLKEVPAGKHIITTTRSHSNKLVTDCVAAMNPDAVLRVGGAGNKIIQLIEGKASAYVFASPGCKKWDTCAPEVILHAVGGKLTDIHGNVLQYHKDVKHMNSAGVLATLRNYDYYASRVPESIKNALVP
UniProt O95817, whole entry, looked up: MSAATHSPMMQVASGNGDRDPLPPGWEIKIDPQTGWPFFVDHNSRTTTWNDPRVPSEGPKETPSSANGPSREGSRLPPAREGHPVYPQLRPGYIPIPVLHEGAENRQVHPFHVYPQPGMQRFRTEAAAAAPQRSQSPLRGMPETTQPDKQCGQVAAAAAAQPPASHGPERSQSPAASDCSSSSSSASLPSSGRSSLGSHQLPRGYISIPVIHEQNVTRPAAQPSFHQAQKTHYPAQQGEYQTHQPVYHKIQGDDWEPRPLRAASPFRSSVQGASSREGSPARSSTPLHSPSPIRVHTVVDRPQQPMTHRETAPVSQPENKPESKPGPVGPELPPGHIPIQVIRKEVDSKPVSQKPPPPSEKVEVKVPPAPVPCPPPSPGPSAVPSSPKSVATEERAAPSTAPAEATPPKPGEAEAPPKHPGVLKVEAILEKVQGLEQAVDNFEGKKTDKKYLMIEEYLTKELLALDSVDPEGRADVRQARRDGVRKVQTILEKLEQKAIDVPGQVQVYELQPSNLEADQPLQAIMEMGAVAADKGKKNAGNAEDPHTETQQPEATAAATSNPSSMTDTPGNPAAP
UniProt Q8TDN6: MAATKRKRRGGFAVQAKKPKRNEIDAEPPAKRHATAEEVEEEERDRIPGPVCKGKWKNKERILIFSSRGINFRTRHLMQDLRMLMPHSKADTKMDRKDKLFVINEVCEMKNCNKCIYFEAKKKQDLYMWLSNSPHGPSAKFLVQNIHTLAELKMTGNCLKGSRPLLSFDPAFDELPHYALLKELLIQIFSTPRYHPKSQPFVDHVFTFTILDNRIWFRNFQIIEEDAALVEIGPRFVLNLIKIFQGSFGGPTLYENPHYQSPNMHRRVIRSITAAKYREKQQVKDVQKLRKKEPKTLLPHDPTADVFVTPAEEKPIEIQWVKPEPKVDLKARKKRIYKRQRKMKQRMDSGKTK
UniProt Q12981: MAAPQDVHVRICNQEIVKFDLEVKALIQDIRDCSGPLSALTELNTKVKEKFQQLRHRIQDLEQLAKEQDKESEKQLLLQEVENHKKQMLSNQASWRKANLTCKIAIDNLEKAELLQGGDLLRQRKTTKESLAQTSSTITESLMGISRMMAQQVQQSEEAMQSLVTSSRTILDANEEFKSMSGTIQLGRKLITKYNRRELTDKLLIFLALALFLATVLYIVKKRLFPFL
UniProt O75934: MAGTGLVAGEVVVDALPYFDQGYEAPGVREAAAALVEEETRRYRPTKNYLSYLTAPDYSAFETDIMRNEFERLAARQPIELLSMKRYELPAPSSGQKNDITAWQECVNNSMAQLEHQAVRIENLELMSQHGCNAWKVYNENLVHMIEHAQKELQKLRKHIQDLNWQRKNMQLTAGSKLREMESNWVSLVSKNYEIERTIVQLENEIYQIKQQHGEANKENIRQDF
UniProt Q9NW68: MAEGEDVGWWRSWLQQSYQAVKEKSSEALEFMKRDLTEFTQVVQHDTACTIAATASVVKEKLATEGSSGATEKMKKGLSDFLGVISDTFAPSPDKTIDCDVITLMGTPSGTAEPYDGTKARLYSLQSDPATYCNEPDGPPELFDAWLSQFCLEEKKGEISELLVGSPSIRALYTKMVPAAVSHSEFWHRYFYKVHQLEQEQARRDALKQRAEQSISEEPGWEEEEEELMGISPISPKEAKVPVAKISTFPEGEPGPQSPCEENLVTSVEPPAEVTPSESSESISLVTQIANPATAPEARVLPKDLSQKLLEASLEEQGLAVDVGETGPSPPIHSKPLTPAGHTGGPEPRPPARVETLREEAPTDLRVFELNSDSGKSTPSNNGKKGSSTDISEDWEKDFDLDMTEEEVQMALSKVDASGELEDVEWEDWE
UniProt O95999: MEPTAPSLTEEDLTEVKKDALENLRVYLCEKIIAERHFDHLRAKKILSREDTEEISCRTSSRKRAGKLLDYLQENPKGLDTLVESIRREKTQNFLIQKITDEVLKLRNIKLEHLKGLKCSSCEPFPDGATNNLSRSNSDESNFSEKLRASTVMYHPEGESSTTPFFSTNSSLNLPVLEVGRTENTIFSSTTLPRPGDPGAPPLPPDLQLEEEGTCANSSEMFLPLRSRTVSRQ
UniProt Q92934: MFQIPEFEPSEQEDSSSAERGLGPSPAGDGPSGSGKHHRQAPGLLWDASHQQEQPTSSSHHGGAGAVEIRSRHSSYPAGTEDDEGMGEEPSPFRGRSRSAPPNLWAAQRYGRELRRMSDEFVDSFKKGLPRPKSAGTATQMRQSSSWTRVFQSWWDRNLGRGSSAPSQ
UniProt Q06187: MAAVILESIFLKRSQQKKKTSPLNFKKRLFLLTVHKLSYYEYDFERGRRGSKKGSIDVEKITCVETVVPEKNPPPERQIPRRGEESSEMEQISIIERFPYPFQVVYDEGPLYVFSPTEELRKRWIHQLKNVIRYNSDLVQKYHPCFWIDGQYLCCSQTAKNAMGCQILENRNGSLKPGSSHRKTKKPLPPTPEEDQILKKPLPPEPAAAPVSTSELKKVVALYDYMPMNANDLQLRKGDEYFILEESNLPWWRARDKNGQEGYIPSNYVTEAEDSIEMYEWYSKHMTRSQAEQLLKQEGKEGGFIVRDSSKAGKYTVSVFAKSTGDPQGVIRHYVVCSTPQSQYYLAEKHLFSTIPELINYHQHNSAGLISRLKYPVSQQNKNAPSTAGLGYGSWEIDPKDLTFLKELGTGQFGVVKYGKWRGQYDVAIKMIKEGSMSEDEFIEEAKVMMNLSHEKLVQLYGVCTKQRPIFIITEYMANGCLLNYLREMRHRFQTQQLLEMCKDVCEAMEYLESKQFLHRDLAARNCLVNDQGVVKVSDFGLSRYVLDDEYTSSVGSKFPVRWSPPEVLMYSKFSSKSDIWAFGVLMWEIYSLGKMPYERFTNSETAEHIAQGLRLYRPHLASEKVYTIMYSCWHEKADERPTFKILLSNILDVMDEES
UniProt Q9P287, whole entry, looked up: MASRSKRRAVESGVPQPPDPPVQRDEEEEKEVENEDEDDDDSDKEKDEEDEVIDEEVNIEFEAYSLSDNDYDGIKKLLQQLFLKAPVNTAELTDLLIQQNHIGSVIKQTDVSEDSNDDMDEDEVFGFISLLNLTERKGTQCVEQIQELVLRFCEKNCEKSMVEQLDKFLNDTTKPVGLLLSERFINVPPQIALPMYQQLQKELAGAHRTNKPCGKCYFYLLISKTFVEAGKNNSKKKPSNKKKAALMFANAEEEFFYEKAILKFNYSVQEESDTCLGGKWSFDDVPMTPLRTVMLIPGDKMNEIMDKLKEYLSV
UniProt O95429: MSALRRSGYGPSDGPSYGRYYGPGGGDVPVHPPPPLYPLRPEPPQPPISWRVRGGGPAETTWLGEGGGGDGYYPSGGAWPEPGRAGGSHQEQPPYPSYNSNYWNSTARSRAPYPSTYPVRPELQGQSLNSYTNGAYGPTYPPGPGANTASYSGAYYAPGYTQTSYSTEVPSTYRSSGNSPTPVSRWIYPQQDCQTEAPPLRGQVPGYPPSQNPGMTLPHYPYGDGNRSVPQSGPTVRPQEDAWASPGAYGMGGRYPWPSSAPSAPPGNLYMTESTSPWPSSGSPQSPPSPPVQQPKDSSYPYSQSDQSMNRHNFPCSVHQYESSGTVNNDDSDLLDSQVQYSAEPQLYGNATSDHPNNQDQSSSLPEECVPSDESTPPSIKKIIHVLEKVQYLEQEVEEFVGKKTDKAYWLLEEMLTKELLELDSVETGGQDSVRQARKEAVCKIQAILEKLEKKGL
UniProt Q6QNY0: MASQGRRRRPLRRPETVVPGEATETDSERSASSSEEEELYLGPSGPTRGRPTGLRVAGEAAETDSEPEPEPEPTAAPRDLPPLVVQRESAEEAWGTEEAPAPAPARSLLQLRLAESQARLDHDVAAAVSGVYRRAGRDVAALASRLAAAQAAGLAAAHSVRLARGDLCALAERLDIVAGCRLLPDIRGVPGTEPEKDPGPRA
UniProt P38398, whole entry, looked up: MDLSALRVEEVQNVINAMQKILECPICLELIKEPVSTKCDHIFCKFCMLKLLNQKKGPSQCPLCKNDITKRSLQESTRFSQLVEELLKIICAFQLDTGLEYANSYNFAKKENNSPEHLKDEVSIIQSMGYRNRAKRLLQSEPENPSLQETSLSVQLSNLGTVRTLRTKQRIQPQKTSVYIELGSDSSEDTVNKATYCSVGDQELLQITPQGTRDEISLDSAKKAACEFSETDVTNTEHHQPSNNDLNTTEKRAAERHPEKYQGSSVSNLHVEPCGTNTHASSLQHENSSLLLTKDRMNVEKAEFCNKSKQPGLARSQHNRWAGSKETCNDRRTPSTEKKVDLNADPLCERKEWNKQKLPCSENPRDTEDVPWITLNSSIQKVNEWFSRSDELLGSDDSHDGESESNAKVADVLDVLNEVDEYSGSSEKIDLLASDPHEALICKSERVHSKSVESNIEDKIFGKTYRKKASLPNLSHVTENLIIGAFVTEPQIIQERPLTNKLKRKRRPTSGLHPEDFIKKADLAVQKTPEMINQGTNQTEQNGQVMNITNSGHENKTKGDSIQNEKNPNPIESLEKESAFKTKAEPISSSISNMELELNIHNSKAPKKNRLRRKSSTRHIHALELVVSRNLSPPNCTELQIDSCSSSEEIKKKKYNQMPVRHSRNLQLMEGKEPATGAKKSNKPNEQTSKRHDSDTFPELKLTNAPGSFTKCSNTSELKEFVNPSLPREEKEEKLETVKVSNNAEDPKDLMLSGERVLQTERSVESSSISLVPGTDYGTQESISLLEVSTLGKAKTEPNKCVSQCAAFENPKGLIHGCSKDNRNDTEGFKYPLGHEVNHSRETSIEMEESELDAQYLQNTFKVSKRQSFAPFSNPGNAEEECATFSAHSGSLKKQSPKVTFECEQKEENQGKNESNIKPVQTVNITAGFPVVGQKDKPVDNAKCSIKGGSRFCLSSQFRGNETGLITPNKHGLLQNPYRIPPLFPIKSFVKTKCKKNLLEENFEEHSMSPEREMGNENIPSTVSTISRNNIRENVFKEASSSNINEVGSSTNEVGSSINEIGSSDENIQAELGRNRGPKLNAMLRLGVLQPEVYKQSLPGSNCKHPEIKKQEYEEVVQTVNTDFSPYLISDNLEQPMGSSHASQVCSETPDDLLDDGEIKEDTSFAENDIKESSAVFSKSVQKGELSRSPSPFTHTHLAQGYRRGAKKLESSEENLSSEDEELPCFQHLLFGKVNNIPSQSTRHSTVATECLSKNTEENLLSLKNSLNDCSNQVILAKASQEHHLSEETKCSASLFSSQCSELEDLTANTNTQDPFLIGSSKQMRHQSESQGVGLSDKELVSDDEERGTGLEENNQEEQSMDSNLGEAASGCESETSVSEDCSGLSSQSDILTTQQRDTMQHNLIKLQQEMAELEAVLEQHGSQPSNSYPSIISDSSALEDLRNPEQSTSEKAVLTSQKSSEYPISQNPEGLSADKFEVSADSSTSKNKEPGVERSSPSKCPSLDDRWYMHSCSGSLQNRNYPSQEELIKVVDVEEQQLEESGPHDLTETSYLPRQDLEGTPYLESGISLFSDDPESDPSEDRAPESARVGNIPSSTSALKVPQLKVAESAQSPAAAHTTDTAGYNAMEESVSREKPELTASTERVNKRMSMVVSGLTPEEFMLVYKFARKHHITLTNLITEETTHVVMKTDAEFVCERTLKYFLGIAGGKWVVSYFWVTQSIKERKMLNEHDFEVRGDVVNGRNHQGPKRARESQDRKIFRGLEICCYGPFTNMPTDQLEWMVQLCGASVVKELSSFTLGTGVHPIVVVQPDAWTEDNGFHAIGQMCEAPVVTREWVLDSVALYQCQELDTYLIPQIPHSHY

The list shows a part of the results.

Compound in this assay: CN1CC[C@H](c2c(O)cc(O)c3c(=O)cc(-c4ccccc4Cl)oc23)[C@H](O)C1 [alvocidib]
Put plainly: log2 fold change, soluble protein after heating vs DMSO (PISA); higher = thermal stabilisation; K562 lysate, 10 uM; active = over 0.2 and 3.5 SD of the protein, either way, in both replicates (recomputed). The procedure, abridged:
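A 30 min treatment with 10 μM compound was applied to crude K562 extract at 1 mg/mL protein in PBS pH 7.4 with 1 mM MgCl2. Heating for 3 min spanned 48°C-58°C, after which aliquots were pooled, adjusted to 0.5% NP-40 at 4°C and spun at 21,000xg for 90 min. TMTpro 16plex LC-MS/MS of the supernatant, with channel sums equalised, gave values recorded as log-two fold change in thermal stability against solvent controls, from duplicates.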
For the target BIRC2 (UniProt Q13490), the log2 fold change was inactive: -0.054.
As to BTN2A1 (UniProt Q7KYR7), the log2 fold change was inactive: -0.016.
On to BAIAP2L1 (UniProt Q9UHR4), for which the log2 fold change is inactive: 0.008.
For BIRC6 (UniProt Q9NR09) the value was inactive: 0.002; for BACH1 (UniProt O14867), inactive: -0.012.
With BPNT1 (UniProt O95861), the log2 fold change is inactive: 0.019.
BTBD6 (UniProt Q96KE9): the log2 fold change was inactive: -0.218.
Take BAG3 (UniProt O95817): the log2 fold change was inactive: 0.004.
For BRCC3 (UniProt P46736) the value was inactive: 0.031.
Next, BRIX1 (UniProt Q8TDN6): inactive: 0.009.
Next, BNIP1 (UniProt Q12981): inactive: 0.231; BCAS2 (UniProt O75934): inactive: -0.001; BSDC1 (UniProt Q9NW68): inactive: -0.033.
With BLVRB (UniProt P30043), the log2 fold change is inactive: -0.003.
Next, BPTF (UniProt Q12830): inactive: -0.022.
For BPHL (UniProt Q86WA6), the log2 fold change is inactive: 0.004.
Next, BCL10 (UniProt O95999): inactive: -0.061.
For BAD (UniProt Q92934) the value was inactive: -0.02.
For BROX (UniProt Q5VW32) the value was inactive: 0.018; for BTK isoform 2 (UniProt Q06187), inactive: -0.037; for BCAP29 isoform 2 (UniProt Q9UHQ4), inactive: 0.01.
As for BAIAP2 isoform 6 (UniProt Q9UQB8), the log2 fold change is inactive: -0.027.
As to BCKDK (UniProt O14874), the log2 fold change was inactive: 0.029.
Next, BCCIP isoform 2 (UniProt Q9P287): inactive: 0.079; BCR (UniProt P11274): inactive: -0.007.
For BAG4 (UniProt O95429) the value was inactive: 0.04; for BCL9 (UniProt O00512), inactive: -0.051.
For BLOC1S3 (UniProt Q6QNY0) the value was inactive: -0.013.
In the case of BRCA1 isoform 7 (UniProt P38398), the log2 fold change is inactive: 0.04.
In the case of BRIP1 (UniProt Q9BX63), the log2 fold change is inactive: -0.029.
Next, BAG2 (UniProt O95816): inactive: 0.017; BCORL1 isoform 3 (UniProt Q5H9F3): inactive: -0.328.
For the target BRK1 isoform 2 (UniProt Q8WUW1), the log2 fold change was inactive: 0.097.
